Taken from: PubChem BioAssay AID1259308 (NCATS, 2017)
Screen: 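Knock-downs that increase output of a recombinant reporter protein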 (primary screen). Cell system: human HEK293 embryonic kidney cells stably expressing firefly luciferase (HEK-CMV-Luc2-Hygro). Knock-down reagent: single siRNA against human genes, 0.8 pmol siRNA per well. Duration: 72 h. Measurement: 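Reporter luminescence and viable-cell signal on separate replicate plates, given as percent of non-targeting control and median/MAD z-scores, plus per-cell luciferase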. Reading the numbers: total luciferase, z-score and total luciferase, % of control: higher = more reporter protein produced. Hit rule: 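Active when the median/MAD z-score for overall luciferase is greater than 3; a gene was taken forward for validation with new siRNAs if at least two of its three siRNAs passed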. Calls: active = raised luciferase; inactive = no rise.
The deposit covers about 59,000 reagents; below is a part drawn at random. Of all reagents, about 1,510 (2.6%) are marked active. 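Calls use total luciferase alone and ignore viability, so some active siRNAs may act by altering cell number.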 A number with no mark means an inactive call. The numbers tell different reagents against one gene apart. Further read-outs or replicates are left out here.

USP21 (ubiquitin specific peptidase 21) #1
- total luciferase, z-score: -0.334
- total luciferase, % of control: 75.2

USP21 (ubiquitin specific peptidase 21) #2
- total luciferase, z-score: -0.726
- total luciferase, % of control: 67.5

USP21 (ubiquitin specific peptidase 21) #3
- total luciferase, z-score: -0.606
- total luciferase, % of control: 69.8

LINC02877 (long independently transcribed non-coding RNA 2877) #1
- total luciferase, z-score: 2.77
- total luciferase, % of control: 137

LINC02877 (long independently transcribed non-coding RNA 2877) #2
- total luciferase, z-score: -0.108
- total luciferase, % of control: 79.7

LINC02877 (long independently transcribed non-coding RNA 2877) #3
- total luciferase, z-score: 1.1
- total luciferase, % of control: 104

TTLL5 (tubulin tyrosine ligase like 5) #1
- total luciferase, z-score: 0.466
- total luciferase, % of control: 91.2

TTLL5 (tubulin tyrosine ligase like 5) #2
- total luciferase, z-score: 1.09
- total luciferase, % of control: 104

TTLL5 (tubulin tyrosine ligase like 5) #3
- total luciferase, z-score: 3.09 (active)
- total luciferase, % of control: 143

LOC441167 (retired record) #1
- total luciferase, z-score: 0.593
- total luciferase, % of control: 93.7

LOC441167 (retired record) #2
- total luciferase, z-score: 0.455
- total luciferase, % of control: 90.9

LOC441167 (retired record) #3
- total luciferase, z-score: -0.561
- total luciferase, % of control: 70.7

OR2K2 (olfactory receptor family 2 subfamily K member 2) #1
- total luciferase, z-score: -0.454
- total luciferase, % of control: 72.8

OR2K2 (olfactory receptor family 2 subfamily K member 2) #2
- total luciferase, z-score: 0.71
- total luciferase, % of control: 96

OR2K2 (olfactory receptor family 2 subfamily K member 2) #3
- total luciferase, z-score: 0.16
- total luciferase, % of control: 85.1

DCAF16 (DDB1 and CUL4 associated factor 16) #1
- total luciferase, z-score: -0.0968
- total luciferase, % of control: 80

DCAF16 (DDB1 and CUL4 associated factor 16) #2
- total luciferase, z-score: -0.572
- total luciferase, % of control: 70.5

DCAF16 (DDB1 and CUL4 associated factor 16) #3
- total luciferase, z-score: -0.541
- total luciferase, % of control: 71.1

CSAG3 (CSAG family member 3) #1
- total luciferase, z-score: -0.786
- total luciferase, % of control: 66.2

CSAG3 (CSAG family member 3) #2
- total luciferase, z-score: -0.44
- total luciferase, % of control: 73.1

CSAG3 (CSAG family member 3) #3
- total luciferase, z-score: 0.326
- total luciferase, % of control: 88.4

CLK4 (CDC like kinase 4) #1
- total luciferase, z-score: 0.458
- total luciferase, % of control: 91

CLK4 (CDC like kinase 4) #2
- total luciferase, z-score: 0.292
- total luciferase, % of control: 87.7

CLK4 (CDC like kinase 4) #3
- total luciferase, z-score: -0.682
- total luciferase, % of control: 68.3

ZBTB14 (zinc finger and BTB domain containing 14) #1
- total luciferase, z-score: 2.24
- total luciferase, % of control: 126

ZBTB14 (zinc finger and BTB domain containing 14) #2
- total luciferase, z-score: -0.0621
- total luciferase, % of control: 80.7

ZBTB14 (zinc finger and BTB domain containing 14) #3
- total luciferase, z-score: 0.158
- total luciferase, % of control: 85

TLR5 (toll like receptor 5) #1
- total luciferase, z-score: -0.14
- total luciferase, % of control: 79.1

TLR5 (toll like receptor 5) #2
- total luciferase, z-score: -1.56
- total luciferase, % of control: 50.8

TLR5 (toll like receptor 5) #3
- total luciferase, z-score: -0.589
- total luciferase, % of control: 70.2

RNASE11 (ribonuclease A family member 11 (inactive)) #1
- total luciferase, z-score: 1.64
- total luciferase, % of control: 114

RNASE11 (ribonuclease A family member 11 (inactive)) #2
- total luciferase, z-score: -0.247
- total luciferase, % of control: 77

RNASE11 (ribonuclease A family member 11 (inactive)) #3
- total luciferase, z-score: 0.617
- total luciferase, % of control: 94.2

TIGD2 (tigger transposable element derived 2) #1
- total luciferase, z-score: -0.195
- total luciferase, % of control: 78

TIGD2 (tigger transposable element derived 2) #2
- total luciferase, z-score: -0.643
- total luciferase, % of control: 69.1

TIGD2 (tigger transposable element derived 2) #3
- total luciferase, z-score: 0.475
- total luciferase, % of control: 91.3

RNPEP (arginyl aminopeptidase) #1
- total luciferase, z-score: 1.06
- total luciferase, % of control: 103

RNPEP (arginyl aminopeptidase) #2
- total luciferase, z-score: -0.0649
- total luciferase, % of control: 80.6

RNPEP (arginyl aminopeptidase) #3
- total luciferase, z-score: -1.39
- total luciferase, % of control: 54.1

BCL2L15 (BCL2 like 15) #1
- total luciferase, z-score: -1.68
- total luciferase, % of control: 48.4

BCL2L15 (BCL2 like 15) #2
- total luciferase, z-score: 0.0795
- total luciferase, % of control: 83.5

BCL2L15 (BCL2 like 15) #3
- total luciferase, z-score: -1.13
- total luciferase, % of control: 59.5

Limited to “total luciferase, % of control”, for 3 of the entries above:
RNASE11 (ribonuclease A family member 11 (inactive)) #2: 77
RNASE11 (ribonuclease A family member 11 (inactive)) #3: 94.2
TIGD2 (tigger transposable element derived 2) #1: 78
